{"source": "PubChem BioAssay AID1159578 | Peter MacCallum Cancer Centre – 2015", "aim": "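siRNA pools altering how lymphatic endothelial cells close a scratch wound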 (primary screen)", "system": "human lymphatic endothelial cells", "knock-down reagent": "siRNA pool against human genes, 40 nM", "time to read-out": "48 h after transfection", "measurement": "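High-content imaging of dye-stained cells in a scratch assay measures filled wound area and nuclei per well; duplicate means given as ratio to mock and robust z-score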", "scale": "migration robust z-score: higher = faster migration into the scratch; nuclei per well: higher = more cells in the well", "hit rule": "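Pools averaging fewer than 3300 nuclei are never called; remaining pools count as changed when migration robust z lies outside -2 to 2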", "calls": "active = migration changed; inactive = no migration change, or too few cells", "note": "The deposit covers about 18,000 reagents; this is a random part of them. About 1,030 of them (5.7%) count as active. 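Inactive calls also include pools with fewer than 3300 nuclei, whose migration was not assessed.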 The raw values are shown without normalisation. Further read-outs or replicates are left out here."}
{"target gene": "ACOX3 (GeneID 8310)", "migration robust z-score": 0.28, "migration class with cell-count check": "migration z between -2 and 2; enough cells", "nuclei per well, duplicate mean": 4958, "outcome": "inactive"}
{"target gene": "ZFHX4 (GeneID 79776)", "migration robust z-score": 1.16, "migration class with cell-count check": "migration z between -2 and 2; enough cells", "nuclei per well, duplicate mean": 6228, "outcome": "inactive"}
{"target gene": "ZMYND10 (GeneID 51364)", "migration robust z-score": -0.1, "migration class with cell-count check": "migration z between -2 and 2; enough cells", "nuclei per well, duplicate mean": 7806, "outcome": "inactive"}
{"target gene": "DPH5 (GeneID 51611)", "migration robust z-score": -1.61, "migration class with cell-count check": "migration z between -2 and 2; enough cells", "nuclei per well, duplicate mean": 5594, "outcome": "inactive"}
{"target gene": "NDP (GeneID 4693)", "migration robust z-score": -1.12, "migration class with cell-count check": "migration z between -2 and 2; enough cells", "nuclei per well, duplicate mean": 4200, "outcome": "inactive"}
{"target gene": "WWTR1 (GeneID 25937)", "migration robust z-score": -0.2, "migration class with cell-count check": "migration z between -2 and 2; enough cells", "nuclei per well, duplicate mean": 5748, "outcome": "inactive"}
{"target gene": "FLII (GeneID 2314)", "migration robust z-score": -0.73, "migration class with cell-count check": "migration z between -2 and 2; enough cells", "nuclei per well, duplicate mean": 6164, "outcome": "inactive"}
{"target gene": "H1-10 (GeneID 8971)", "migration robust z-score": -0.58, "migration class with cell-count check": "migration z between -2 and 2; enough cells", "nuclei per well, duplicate mean": 5870, "outcome": "inactive"}
{"target gene": "CCSER1 (GeneID 401145)", "migration robust z-score": -0.64, "migration class with cell-count check": "migration z between -2 and 2; enough cells", "nuclei per well, duplicate mean": 5666, "outcome": "inactive"}
{"target gene": "SLC38A1 (GeneID 81539)", "migration robust z-score": -1.66, "migration class with cell-count check": "migration z between -2 and 2; enough cells", "nuclei per well, duplicate mean": 4365, "outcome": "inactive"}
{"target gene": "CSDC2 (GeneID 27254)", "migration robust z-score": -0.76, "migration class with cell-count check": "migration z between -2 and 2; enough cells", "nuclei per well, duplicate mean": 5406, "outcome": "inactive"}
{"target gene": "ATP6AP1 (GeneID 537)", "migration robust z-score": -0.96, "migration class with cell-count check": "migration z between -2 and 2; enough cells", "nuclei per well, duplicate mean": 6589, "outcome": "inactive"}

Targets listed so far whose target name starts with A or a (2):
{"target gene": "ACOX3 (GeneID 8310)", "migration robust z-score": 0.28, "migration class with cell-count check": "migration z between -2 and 2; enough cells", "nuclei per well, duplicate mean": 4958, "outcome": "inactive"}
{"target gene": "ATP6AP1 (GeneID 537)", "migration robust z-score": -0.96, "migration class with cell-count check": "migration z between -2 and 2; enough cells", "nuclei per well, duplicate mean": 6589, "outcome": "inactive"}

Further results:
{"target gene": "NAAA (GeneID 27163)", "migration robust z-score": 1.09, "migration class with cell-count check": "migration z between -2 and 2; enough cells", "nuclei per well, duplicate mean": 4846, "outcome": "inactive"}
{"target gene": "MRPL24 (GeneID 79590)", "migration robust z-score": -0.18, "migration class with cell-count check": "migration z between -2 and 2; enough cells", "nuclei per well, duplicate mean": 6626, "outcome": "inactive"}
{"target gene": "ADCYAP1 (GeneID 116)", "migration robust z-score": -1.29, "migration class with cell-count check": "migration z between -2 and 2; enough cells", "nuclei per well, duplicate mean": 5430, "outcome": "inactive"}
{"target gene": "HPCAL1 (GeneID 3241)", "migration robust z-score": -1.6, "migration class with cell-count check": "migration z between -2 and 2; enough cells", "nuclei per well, duplicate mean": 4884, "outcome": "inactive"}
{"target gene": "AZI2 (GeneID 64343)", "migration robust z-score": -0.74, "migration class with cell-count check": "migration z between -2 and 2; enough cells", "nuclei per well, duplicate mean": 6842, "outcome": "inactive"}
{"target gene": "TYR (GeneID 7299)", "migration robust z-score": 0.28, "migration class with cell-count check": "migration z between -2 and 2; enough cells", "nuclei per well, duplicate mean": 5545, "outcome": "inactive"}
{"target gene": "CDH23 (GeneID 64072)", "migration robust z-score": 0.26, "migration class with cell-count check": "migration z between -2 and 2; enough cells", "nuclei per well, duplicate mean": 6104, "outcome": "inactive"}
{"target gene": "ARK2C (GeneID 494470)", "migration robust z-score": 0.62, "migration class with cell-count check": "migration z between -2 and 2; enough cells", "nuclei per well, duplicate mean": 6302, "outcome": "inactive"}
{"target gene": "CLDN6 (GeneID 9074)", "migration robust z-score": -0.39, "migration class with cell-count check": "migration z between -2 and 2; enough cells", "nuclei per well, duplicate mean": 5447, "outcome": "inactive"}
